Measured data: PubChem BioAssay AID1224830 (NIAID, 2016)
The deposit covers about 18,000 reagents; shown is a random part of them. Over the whole deposit, about 2,900 (16%) got an active call. 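Calls are made per well; low scores hint the gene aids the LPS response, high scores that it dampens it.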 Repeated entries: four replicate wells of each siRNA pool. No sequences are given here.

Screen: 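Genes whose knock-down alters the TNF-alpha reporter response to LPS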 (primary screen)
System: human THP-1 monocytic leukaemia cells, TNF dual-luciferase reporter clone, PMA-differentiated to macrophage-like cells
Reagents: siRNA pool against human genes, 50 nM
Duration: LPS for 4 h, given about 3 days after siRNA transfection
Treatment: bacterial LPS (TLR4 ligand), 10 ng/ml
Read-out: 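Ratio of firefly to renilla light, scaled to the plate median and expressed as a robust z-score per replicate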
Direction: TNF reporter robust z-score: higher = stronger TNF reporter response to LPS
Rule for the call: 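a well is active when its z-score exceeds 2.8 or falls below -1.5; control wells carry no call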

gene	TNF reporter robust z-score	call
IRX3 (iroquois homeobox 3)	-0.58	inactive
IRX3 (iroquois homeobox 3)	0.31	inactive
IRX3 (iroquois homeobox 3)	0.16	inactive
IRX3 (iroquois homeobox 3)	0.64	inactive
XKR6 (XK related 6)	1.91	inactive
XKR6 (XK related 6)	2.65	inactive
XKR6 (XK related 6)	1.05	inactive
XKR6 (XK related 6)	0.54	inactive
GRAP (GRB2 related adaptor protein)	4.25	active
GRAP (GRB2 related adaptor protein)	-0.32	inactive
GRAP (GRB2 related adaptor protein)	0.32	inactive
GRAP (GRB2 related adaptor protein)	0.98	inactive
RAB9B (RAB9B, member RAS oncogene family)	1.41	inactive
RAB9B (RAB9B, member RAS oncogene family)	1.28	inactive
RAB9B (RAB9B, member RAS oncogene family)	1.17	inactive
RAB9B (RAB9B, member RAS oncogene family)	1.99	inactive
HSPA6 (heat shock protein family A (Hsp70) member 6)	-0.32	inactive
HSPA6 (heat shock protein family A (Hsp70) member 6)	-0.41	inactive
HSPA6 (heat shock protein family A (Hsp70) member 6)	-0.89	inactive
HSPA6 (heat shock protein family A (Hsp70) member 6)	-0.9	inactive
TDRD12 (tudor domain containing 12)	1.69	inactive
TDRD12 (tudor domain containing 12)	-0.5	inactive
TDRD12 (tudor domain containing 12)	-0.44	inactive
TDRD12 (tudor domain containing 12)	0	inactive
HNRNPC (heterogeneous nuclear ribonucleoprotein C)	-1.67	active
HNRNPC (heterogeneous nuclear ribonucleoprotein C)	-1.93	active
HNRNPC (heterogeneous nuclear ribonucleoprotein C)	-1.99	active
HNRNPC (heterogeneous nuclear ribonucleoprotein C)	-1.92	active
ZBTB39 (zinc finger and BTB domain containing 39)	0.43	inactive
ZBTB39 (zinc finger and BTB domain containing 39)	0.11	inactive
ZBTB39 (zinc finger and BTB domain containing 39)	1.39	inactive
ZBTB39 (zinc finger and BTB domain containing 39)	-0.12	inactive
YOD1 (YOD1 deubiquitinase)	-1.12	inactive
YOD1 (YOD1 deubiquitinase)	-0.08	inactive
YOD1 (YOD1 deubiquitinase)	-1.57	active
YOD1 (YOD1 deubiquitinase)	-1.41	inactive
ACTR6 (actin related protein 6)	0.39	inactive
ACTR6 (actin related protein 6)	1.12	inactive
ACTR6 (actin related protein 6)	-0.3	inactive
ACTR6 (actin related protein 6)	-0.34	inactive
MSANTD4 (Myb/SANT DNA binding domain containing 4 with coiled-coils)	0.4	inactive
MSANTD4 (Myb/SANT DNA binding domain containing 4 with coiled-coils)	-1.07	inactive
MSANTD4 (Myb/SANT DNA binding domain containing 4 with coiled-coils)	-0.73	inactive
MSANTD4 (Myb/SANT DNA binding domain containing 4 with coiled-coils)	1.43	inactive
ABI2 (abl interactor 2)	1.17	inactive
ABI2 (abl interactor 2)	0.81	inactive
ABI2 (abl interactor 2)	0.98	inactive
ABI2 (abl interactor 2)	1.01	inactive

Next part, starting with the last 15 of the part before.
gene	TNF reporter robust z-score	call
YOD1 (YOD1 deubiquitinase)	-0.08	inactive
YOD1 (YOD1 deubiquitinase)	-1.57	active
YOD1 (YOD1 deubiquitinase)	-1.41	inactive
ACTR6 (actin related protein 6)	0.39	inactive
ACTR6 (actin related protein 6)	1.12	inactive
ACTR6 (actin related protein 6)	-0.3	inactive
ACTR6 (actin related protein 6)	-0.34	inactive
MSANTD4 (Myb/SANT DNA binding domain containing 4 with coiled-coils)	0.4	inactive
MSANTD4 (Myb/SANT DNA binding domain containing 4 with coiled-coils)	-1.07	inactive
MSANTD4 (Myb/SANT DNA binding domain containing 4 with coiled-coils)	-0.73	inactive
MSANTD4 (Myb/SANT DNA binding domain containing 4 with coiled-coils)	1.43	inactive
ABI2 (abl interactor 2)	1.17	inactive
ABI2 (abl interactor 2)	0.81	inactive
ABI2 (abl interactor 2)	0.98	inactive
ABI2 (abl interactor 2)	1.01	inactive
NRSN2 (neurensin 2)	2.88	active
NRSN2 (neurensin 2)	2.09	inactive
NRSN2 (neurensin 2)	3.48	active
NRSN2 (neurensin 2)	-0.11	inactive
ZC3HAV1 (zinc finger CCCH-type containing, antiviral 1)	1.28	inactive
ZC3HAV1 (zinc finger CCCH-type containing, antiviral 1)	-0.05	inactive
ZC3HAV1 (zinc finger CCCH-type containing, antiviral 1)	-0.04	inactive
ZC3HAV1 (zinc finger CCCH-type containing, antiviral 1)	1.48	inactive
GLI2 (GLI family zinc finger 2)	3.5	active
GLI2 (GLI family zinc finger 2)	2.65	inactive
GLI2 (GLI family zinc finger 2)	3.01	active
GLI2 (GLI family zinc finger 2)	1.71	inactive
RBM46 (RNA binding motif protein 46)	-0.68	inactive
RBM46 (RNA binding motif protein 46)	-0.04	inactive
RBM46 (RNA binding motif protein 46)	0.96	inactive
RBM46 (RNA binding motif protein 46)	1.95	inactive
FILIP1 (filamin A interacting protein 1)	-0.55	inactive
FILIP1 (filamin A interacting protein 1)	0.56	inactive
FILIP1 (filamin A interacting protein 1)	1.41	inactive
FILIP1 (filamin A interacting protein 1)	0.51	inactive
PLK1 (polo like kinase 1)	-0.4	inactive
PLK1 (polo like kinase 1)	-0.68	inactive
PLK1 (polo like kinase 1)	-1.31	inactive
PLK1 (polo like kinase 1)	-1.43	inactive
CYP4F3 (cytochrome P450 family 4 subfamily F member 3)	0.06	inactive
CYP4F3 (cytochrome P450 family 4 subfamily F member 3)	-0.34	inactive
CYP4F3 (cytochrome P450 family 4 subfamily F member 3)	-0.81	inactive
CYP4F3 (cytochrome P450 family 4 subfamily F member 3)	-0.13	inactive
MAN1A2 (mannosidase alpha class 1A member 2)	-0.59	inactive
MAN1A2 (mannosidase alpha class 1A member 2)	-0.03	inactive
MAN1A2 (mannosidase alpha class 1A member 2)	-0.38	inactive
MAN1A2 (mannosidase alpha class 1A member 2)	0.46	inactive
DNAJC28 (DnaJ heat shock protein family (Hsp40) member C28)	-0.04	inactive
DNAJC28 (DnaJ heat shock protein family (Hsp40) member C28)	-0.09	inactive
DNAJC28 (DnaJ heat shock protein family (Hsp40) member C28)	0.61	inactive
DNAJC28 (DnaJ heat shock protein family (Hsp40) member C28)	0.31	inactive
IL15RA (interleukin 15 receptor subunit alpha)	-0.81	inactive
IL15RA (interleukin 15 receptor subunit alpha)	-0.22	inactive
IL15RA (interleukin 15 receptor subunit alpha)	-0.73	inactive
IL15RA (interleukin 15 receptor subunit alpha)	0.01	inactive
DGLUCY (D-glutamate cyclase)	-0.87	inactive
DGLUCY (D-glutamate cyclase)	-0.14	inactive
DGLUCY (D-glutamate cyclase)	-0.24	inactive
DGLUCY (D-glutamate cyclase)	0.09	inactive
CEBPD (CCAAT enhancer binding protein delta)	-1.17	inactive
CEBPD (CCAAT enhancer binding protein delta)	-0.97	inactive
CEBPD (CCAAT enhancer binding protein delta)	-1.2	inactive
CEBPD (CCAAT enhancer binding protein delta)	-0.83	inactive
ST8SIA4 (ST8 alpha-N-acetyl-neuraminide alpha-2,8-sialyltransferase 4)	-0.46	inactive
ST8SIA4 (ST8 alpha-N-acetyl-neuraminide alpha-2,8-sialyltransferase 4)	-0.47	inactive
ST8SIA4 (ST8 alpha-N-acetyl-neuraminide alpha-2,8-sialyltransferase 4)	-0.22	inactive
ST8SIA4 (ST8 alpha-N-acetyl-neuraminide alpha-2,8-sialyltransferase 4)	-0.04	inactive
SNX24 (sorting nexin 24)	0.77	inactive
SNX24 (sorting nexin 24)	0.74	inactive
SNX24 (sorting nexin 24)	0.76	inactive
SNX24 (sorting nexin 24)	-1.05	inactive
MAD2L2 (mitotic arrest deficient 2 like 2)	-2.01	active
MAD2L2 (mitotic arrest deficient 2 like 2)	-1.64	active
MAD2L2 (mitotic arrest deficient 2 like 2)	-1.82	active
KLRG2 (killer cell lectin like receptor G2)	-0.73	inactive
KLRG2 (killer cell lectin like receptor G2)	0.28	inactive
KLRG2 (killer cell lectin like receptor G2)	-0.27	inactive
KLRG2 (killer cell lectin like receptor G2)	0.09	inactive
NBPF15 (NBPF member 15)	-0.47	inactive
NBPF15 (NBPF member 15)	-0.43	inactive
NBPF15 (NBPF member 15)	1.37	inactive
NBPF15 (NBPF member 15)	-1.11	inactive
ZNF569 (zinc finger protein 569)	2.19	inactive
ZNF569 (zinc finger protein 569)	0.02	inactive
ZNF569 (zinc finger protein 569)	1.19	inactive
ZNF569 (zinc finger protein 569)	0.66	inactive
EDA (ectodysplasin A)	-0.81	inactive
EDA (ectodysplasin A)	-1.02	inactive
EDA (ectodysplasin A)	-1.17	inactive
EDA (ectodysplasin A)	-0.97	inactive
KRTCAP3 (keratinocyte associated protein 3)	-1.16	inactive
KRTCAP3 (keratinocyte associated protein 3)	-0.33	inactive
KRTCAP3 (keratinocyte associated protein 3)	-1.87	active
KRTCAP3 (keratinocyte associated protein 3)	-1.63	active
UNC13A (unc-13 homolog A)	-0.58	inactive
UNC13A (unc-13 homolog A)	1.39	inactive
UNC13A (unc-13 homolog A)	0.45	inactive
UNC13A (unc-13 homolog A)	0.29	inactive
PCDHB7 (protocadherin beta 7)	0.46	inactive
PCDHB7 (protocadherin beta 7)	0.74	inactive
PCDHB7 (protocadherin beta 7)	0.43	inactive
PCDHB7 (protocadherin beta 7)	0.15	inactive
SVIL (supervillin)	-1.2	inactive
SVIL (supervillin)	-0.06	inactive
SVIL (supervillin)	-1.05	inactive
SVIL (supervillin)	-0.16	inactive
TRADD (TNFRSF1A associated via death domain)	-0.02	inactive
TRADD (TNFRSF1A associated via death domain)	0.77	inactive
TRADD (TNFRSF1A associated via death domain)	0.03	inactive
TRADD (TNFRSF1A associated via death domain)	0.05	inactive
